{
  "source": "PubChem BioAssay AID540256",
  "about": "(National Center for Advancing Translational Sciences (NCATS), 2011)",
  "note": "About 3,700 (1.2%) of roughly 300,000 compounds were called active. This list was built around the results that the source calls inconclusive (neither active nor inactive); the mix of calls is not that of the screen. The call rests on the fitted dose curve; tested in HEK293 cells. Potencies of inconclusive entries are doubtful fits and often do not repeat. Potency means the concentration at half of the fitted maximal effect.",
  "data": [
    {"test": "qHTS for Inhibitors of binding or entry into cells for Lassa Virus; further: nearly all actives have a fitted effect of over 50% in size", "conditions": "Lassa virus pseudotype entry inhibition, cell reporter; series mostly up to 37.9 µM", "values": [
      {"smiles": "COc1ccc(Cn2ccnc2SCC(=O)Nc2ccc(C)cc2C)cc1", "Potency": "inconclusive: 35.5 µM [inhibitor, single point]"},
      {"smiles": "Cc1cc(OCCCCCNCCO)cc(C)c1Cl", "Potency": "inactive"},
      {"smiles": "COc1cccc(NC(=O)CN2CCCN(S(=O)(=O)c3ccc(Br)cc3)CC2)c1", "Potency": "inactive"},
      {"smiles": "CCN1CC2=C(OC(N)=C(C#N)C2c2ccccc2)/C(=C\\c2ccccc2)C1", "note": "(configuration not stated)", "Potency": "inconclusive: 28.2 µM [inhibitor, single point]"},
      {"smiles": "Cc1ccc(CNC(=O)CN(c2ccc(C(C)C)cc2)S(=O)(=O)c2c(C)n[nH]c2C)cc1", "Potency": "inconclusive: 3.55 µM [inhibitor, partial curve, poor fit]"},
      {"smiles": "CCCCNC(=S)N/N=C1\\CCCCc2ccccc21", "Potency": "inconclusive: 11.6 µM [inhibitor, partial curve, poor fit]"},
      {"smiles": "Cc1nn(C)cc1/C=N/NC(=O)Cn1nnc(N)n1", "Potency": "inconclusive: 35.5 µM [inhibitor, single point]"},
      {"smiles": "COc1ccccc1/C=C/C(=O)Nc1cccc(C(C)=O)c1", "Potency": "inactive"},
      {"smiles": "Cc1ccc2nc(N(CCCN(C)C)C(=O)c3sc4ccccc4c3Cl)sc2c1", "Potency": "inconclusive: 25.1 µM [inhibitor, single point]"},
      {"smiles": "CN(C)/C=C/C(=O)c1cc(F)cc(C(F)(F)F)c1", "Potency": "inactive"},
      {"smiles": "CCn1c(N)[n+](CC(=O)Nc2ccc(SC(F)F)cc2)c2ccccc21", "Potency": "inconclusive: 15.8 µM [inhibitor, single point]"},
      {"smiles": "C#CCOc1ccc(C2C3=C(CCCC3=O)N(CC(=O)O)C3=C2C(=O)CCC3)cc1Br", "Potency": "inactive"},
      {"smiles": "COc1ccccc1N1CCN(C2CCCN(C(=O)CN3CCCC3=O)C2)CC1", "note": "(configuration not stated)", "Potency": "inactive"},
      {"smiles": "COc1cccc(C(=O)/C=C/c2ccc(N3CCCCC3)c([N+](=O)[O-])c2)c1", "Potency": "inactive"},
      {"smiles": "CC(C)c1nnc(NC(=O)c2cccnc2)s1", "Potency": "inconclusive: 3.16 µM [activator, partial curve]"},
      {"smiles": "CCOc1ccc(CONS(=O)(=O)c2ccc(NC(C)=O)cc2)cc1Cl", "Potency": "inconclusive: 5.62 µM [inhibitor, partial curve, poor fit]"},
      {"smiles": "CC(=O)NC(Cc1c[nH]c2ccccc12)C(=O)Nc1ccc2c(c1)OCO2", "note": "(configuration not stated)", "Potency": "inactive"},
      {"smiles": "CCc1ccc(NC(=O)c2cc(-c3cccs3)on2)cc1", "Potency": "inconclusive: 2 µM [activator, single point]"},
      {"smiles": "CCOC(=O)CCN(C(=S)Nc1ccccc1)C1CCCCC1", "Potency": "inactive"},
      {"smiles": "COc1cccc(CN(C)C(=O)c2ccc(OCC(=O)Nc3cccc(C(F)(F)F)c3)c(OC)c2)c1", "Potency": "active: 8.91 µM"},
      {"smiles": "O=C(Cc1cccs1)Nc1nc2ccccc2s1", "Potency": "inconclusive: 35.5 µM [inhibitor, single point]"},
      {"smiles": "CCOc1ccccc1CNc1ncnc2c1nc1n2CCCC1", "Potency": "inconclusive: 3.16 µM [inhibitor, full curve]"},
      {"smiles": "O=C(C1CCCN(S(=O)(=O)c2cccc3nonc23)C1)N1CCN(c2cccc(Cl)c2)CC1", "note": "(configuration not stated)", "Potency": "inactive"},
      {"smiles": "CCCn1c(=N)c(C(=O)NCc2cccnc2)cc2c(=O)n3cc(C)ccc3nc21", "Potency": "inconclusive: 0.562 µM [activator, full curve, poor fit]"},
      {"smiles": "CCc1ccc(NC(=O)c2cc(-c3ccc4c(c3)OCO4)on2)cc1", "Potency": "inactive"},
      {"smiles": "COc1cc(-n2c(=O)c3ccccc3n(CC(=O)c3ccc(F)cc3)c2=O)cc(OC)c1OC", "Potency": "inactive"},
      {"smiles": "COc1ccccc1N1CCN(C(c2ccc(C)cc2)c2nnnn2C(C)C)CC1", "note": "(configuration not stated)", "Potency": "inconclusive: 35.5 µM [inhibitor, single point]"},
      {"smiles": "COc1cc(/C=N/Nc2nc3c(c(=O)n(C)c(=O)n3C)n2Cc2ccccc2)ccc1OC(=O)c1ccco1", "Potency": "inconclusive: 11.2 µM [inhibitor, partial curve, poor fit]"},
      {"smiles": "CC(=O)c1ccc(NS(=O)(=O)c2cc3[nH]c(=O)c(=O)[nH]c3cc2C)cc1", "Potency": "inactive"},
      {"smiles": "OCCN(CCO)c1cc2c3ccccc3ccc2c2ccccc12", "Potency": "inconclusive: 15.8 µM [inhibitor, partial curve, poor fit]"},
      {"smiles": "COc1ccc(CNCCC(c2ccc(F)cc2)c2ccc(OC(C)C)cc2)cc1OC", "note": "(configuration not stated)", "Potency": "inconclusive: 12.6 µM [inhibitor, partial curve, poor fit]"},
      {"smiles": "S=c1[nH]nc(COc2ccccc2)n1/N=C/c1cccs1", "Potency": "inconclusive: 25.1 µM [inhibitor, partial curve, poor fit]"},
      {"smiles": "COc1ccc(CNC(=O)Cn2ccc3cc(S(=O)(=O)N4CCCCC4)ccc32)c(OC)c1", "Potency": "inconclusive: 17.8 µM [inhibitor, single point]"},
      {"smiles": "O=C(Cn1cnc2sc(-c3ccccc3)cc2c1=O)NCc1ccccc1", "Potency": "inconclusive: 0.0052 µM [inhibitor, full curve, poor fit]"},
      {"smiles": "CS(=O)(=O)c1ccc2nc(NC(=O)Nc3cccc(Cl)c3)sc2c1", "Potency": "inconclusive: 16.4 µM [inhibitor, single point]"},
      {"smiles": "CCOc1ccccc1NC(=O)Cn1c(=O)n(CCCC(=O)NCCOC)c(=O)c2cc(OC)c(OC)cc21", "Potency": "inactive"},
      {"smiles": "Cc1n[nH]c(C)c1Sc1ccccc1N=Cc1cc(Cl)cc([N+](=O)[O-])c1O", "Potency": "inconclusive: 3.16 µM [inhibitor, single point]"},
      {"smiles": "COc1ccc(NC(=O)CN(C)C(=O)/C=C/c2ccc(S(=O)(=O)N3CCCCCC3)cc2)cc1", "Potency": "inactive"},
      {"smiles": "Cc1ccc(Nc2nnc(SCC(=O)Nc3cccc(S(=O)(=O)NC4=NCCCCC4)c3)s2)cc1", "Potency": "inconclusive: 35.5 µM [inhibitor, single point]"},
      {"smiles": "Cc1cc(C)nc(-n2nc(C)c3c(C(F)(F)F)cc(=O)[nH]c32)n1", "Potency": "inactive"},
      {"smiles": "Cc1c(C(N)=O)cc([N+](=O)[O-])cc1[N+](=O)[O-]", "Potency": "inconclusive: 2.82 µM [inhibitor, single point]"},
      {"smiles": "Cc1ccc(SCc2ccc(C(=O)Nc3nccs3)o2)cc1", "Potency": "inconclusive: 20 µM [inhibitor, partial curve, poor fit]"},
      {"smiles": "NS(=O)(=O)c1cccc(NC(=O)CSc2nc3ccccc3c(=O)n2CC2CCCO2)c1", "note": "(configuration not stated)", "Potency": "inconclusive: 5.62 µM [inhibitor, single point]"},
      {"smiles": "O=C(c1ccc(Cl)c(Cl)c1)N1CCC(=O)N(C(COCc2ccccc2)Cc2ccccc2)CC1", "note": "(configuration not stated)", "Potency": "inconclusive: 29.1 µM [inhibitor, single point]"},
      {"smiles": "CCN(CC)CCCNc1ccc2ncn3c4ccc(O)cc4c(=O)c1c23", "Potency": "inconclusive: 0.794 µM [inhibitor, full curve]"},
      {"smiles": "Cc1ccc(N2C(=O)NC(=O)/C(=C/c3cnc(-c4ccccc4)nc3)C2=O)cc1C", "Potency": "inactive"},
      {"smiles": "Cc1ccc(Cn2ccn(CC(=O)Nc3ccccc3C(F)(F)F)c(=O)c2=O)cc1", "Potency": "inconclusive: 0.794 µM [inhibitor, full curve, poor fit]"},
      {"smiles": "CC(C)c1nn2c(=O)cc(COC(=O)Cc3ccccc3)nc2s1", "Potency": "inconclusive: 35.5 µM [activator, single point]"},
      {"smiles": "COc1ccccc1CNC(=O)C1CCCN(c2nn3cc(-c4ccc(F)cc4)nc3s2)C1", "note": "(configuration not stated)", "Potency": "inactive"},
      {"smiles": "COC(=O)CNC(c1ccccc1)c1cc(Br)ccc1NC(=O)OCc1ccccc1", "note": "(configuration not stated)", "Potency": "inconclusive: 35.5 µM [inhibitor, single point]"},
      {"smiles": "CC1=C([N+](=O)[O-])C(c2ccccc2)NC(=O)N1", "note": "(configuration not stated)", "Potency": "inconclusive: 0.447 µM [activator, full curve, poor fit]"},
      {"smiles": "CC(C)(C)N(Cc1ccccc1)C(=O)COC(=O)c1cccc([N+](=O)[O-])c1", "Potency": "inconclusive: 5.62 µM [inhibitor, single point]"},
      {"smiles": "CN(CC(=O)Nc1ccccc1Br)C(=O)c1cc(S(=O)(=O)N(C)C)ccc1N1CCCC1", "Potency": "inactive"},
      {"smiles": "CC1(C)COC(/C=C/c2ccc([N+](=O)[O-])cc2)=N1", "Potency": "inconclusive: 11.2 µM [inhibitor, partial curve, poor fit]"},
      {"smiles": "CC(C)c1ccc(CCNC(=O)c2cccc(S(=O)(=O)N3CCN(C)CC3)c2)cc1", "Potency": "inconclusive: 25.1 µM [inhibitor, single point]"},
      {"smiles": "CCOC(=O)Cn1c(CN(Cc2ccccc2)Cc2ccccc2)nc2c1c(=O)n(C)c(=O)n2C", "Potency": "inconclusive: 7.3 µM [inhibitor, partial curve, poor fit]"},
      {"smiles": "O=C(Nc1ccncc1)c1ccc2ncsc2c1", "Potency": "inactive"},
      {"smiles": "COc1ccccc1N1CCN(S(=O)(=O)c2ccc(Cl)cc2)CC1", "Potency": "inconclusive: 0.562 µM [inhibitor, full curve, poor fit]"},
      {"smiles": "Cc1ccc2c(c1)sc1nc(-c3cc4ccccc4oc3=O)cn12", "Potency": "inactive"},
      {"smiles": "COc1ccccc1N(C(=O)c1snc(C(N)=O)c1N)C(C(=O)NC1CCCCC1)c1cccc(OC)c1OC", "note": "(configuration not stated)", "Potency": "inconclusive: 22.4 µM [inhibitor, single point]"},
      {"smiles": "CCN(CC)c1ccc(C(=O)N2CCN(Cc3ccccc3)CC2)cc1", "Potency": "inconclusive: 16.4 µM [inhibitor, single point]"},
      {"smiles": "COCC(C)n1c(C)cc(C(=O)COC(=O)c2c(C)nn(-c3ccccc3)c2C)c1C", "note": "(configuration not stated)", "Potency": "inconclusive: 20.6 µM [inhibitor, single point]"},
      {"smiles": "O=C(O)c1ccc(N/N=C/c2ccc(-c3ccc(Br)cc3)o2)cc1", "Potency": "inconclusive: 35.5 µM [inhibitor, single point]"},
      {"smiles": "O=C(CSc1nc2ccccc2o1)Nc1nncs1", "Potency": "inactive"},
      {"smiles": "COc1cc(S(=O)(=O)N2CCOCC2)ccc1NC(=O)CN1c2cccc3cccc(c23)S1(=O)=O", "Potency": "inconclusive: 1.26 µM [inhibitor, single point]"},
      {"smiles": "CN(C)N=Nc1nc2c(c(=O)n(C)c(=O)n2C)n1CC1CO1", "note": "(configuration not stated)", "Potency": "inconclusive: 15.8 µM [inhibitor, partial curve, poor fit]"},
      {"smiles": "CC(OC(=O)c1nsc(Cl)c1Cl)C(=O)NCc1ccc2c(c1)OCO2", "note": "(configuration not stated)", "Potency": "inconclusive: 0.517 µM [inhibitor, full curve, poor fit]"}
    ]}
  ]
}
